This is an account of results in article PMC5090039.

Amino acid sequences for entries named in this document (tags omitted). A change or cut given only in a name is not applied to a line headed by its entry. Residues count along the entry.
HCV NS4A (J6/JFH genome), GLuc2 fusion (hepatitis C virus (J6/JFH genome)) (Q99IB8, residues 1662-1715): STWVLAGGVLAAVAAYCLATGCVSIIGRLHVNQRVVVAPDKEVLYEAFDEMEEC
HCV NS5A (J6/JFH genome), GLuc2 fusion (hepatitis C virus (J6/JFH genome)) (Q99IB8, residues 1977-2442): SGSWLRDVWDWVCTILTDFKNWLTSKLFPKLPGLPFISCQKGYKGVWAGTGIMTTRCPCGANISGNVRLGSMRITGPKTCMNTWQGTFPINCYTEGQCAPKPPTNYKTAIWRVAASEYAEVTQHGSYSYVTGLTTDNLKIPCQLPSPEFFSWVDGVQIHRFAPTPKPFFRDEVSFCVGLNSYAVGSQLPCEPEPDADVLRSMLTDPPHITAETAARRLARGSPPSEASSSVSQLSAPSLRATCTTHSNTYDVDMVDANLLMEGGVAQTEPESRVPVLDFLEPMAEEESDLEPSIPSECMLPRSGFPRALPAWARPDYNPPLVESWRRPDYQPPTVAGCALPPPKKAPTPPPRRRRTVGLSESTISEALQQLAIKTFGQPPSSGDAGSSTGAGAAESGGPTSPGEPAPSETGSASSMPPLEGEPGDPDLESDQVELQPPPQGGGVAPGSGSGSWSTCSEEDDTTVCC
UniProt O14964: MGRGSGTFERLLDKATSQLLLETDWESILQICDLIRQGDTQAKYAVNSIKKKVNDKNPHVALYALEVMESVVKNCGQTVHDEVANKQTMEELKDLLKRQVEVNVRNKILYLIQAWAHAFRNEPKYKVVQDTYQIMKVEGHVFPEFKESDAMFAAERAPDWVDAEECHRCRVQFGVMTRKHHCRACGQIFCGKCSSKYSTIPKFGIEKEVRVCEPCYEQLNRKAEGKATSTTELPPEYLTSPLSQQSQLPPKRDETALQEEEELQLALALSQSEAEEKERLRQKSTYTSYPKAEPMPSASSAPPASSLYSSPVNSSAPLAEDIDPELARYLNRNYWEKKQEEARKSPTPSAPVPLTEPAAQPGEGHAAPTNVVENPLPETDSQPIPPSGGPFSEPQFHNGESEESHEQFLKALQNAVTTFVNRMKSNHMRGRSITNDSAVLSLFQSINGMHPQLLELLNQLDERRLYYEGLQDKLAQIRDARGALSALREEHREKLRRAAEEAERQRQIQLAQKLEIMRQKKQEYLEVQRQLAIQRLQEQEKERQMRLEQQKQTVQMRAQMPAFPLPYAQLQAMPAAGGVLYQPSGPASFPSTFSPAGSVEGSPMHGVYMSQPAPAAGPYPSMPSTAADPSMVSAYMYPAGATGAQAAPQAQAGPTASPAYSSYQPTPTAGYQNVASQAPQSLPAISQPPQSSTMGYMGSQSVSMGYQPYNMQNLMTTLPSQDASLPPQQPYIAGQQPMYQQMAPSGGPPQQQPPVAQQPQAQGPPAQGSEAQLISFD
HCV p7 (J6/JFH genome), GLuc2 fusion (hepatitis C virus (J6/JFH genome)) (P26660, residues 751-813): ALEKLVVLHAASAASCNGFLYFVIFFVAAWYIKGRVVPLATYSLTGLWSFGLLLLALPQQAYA
HCV NS2 (J6/JFH genome), GLuc2 fusion (hepatitis C virus (J6/JFH genome)) (P26660, residues 814-1030): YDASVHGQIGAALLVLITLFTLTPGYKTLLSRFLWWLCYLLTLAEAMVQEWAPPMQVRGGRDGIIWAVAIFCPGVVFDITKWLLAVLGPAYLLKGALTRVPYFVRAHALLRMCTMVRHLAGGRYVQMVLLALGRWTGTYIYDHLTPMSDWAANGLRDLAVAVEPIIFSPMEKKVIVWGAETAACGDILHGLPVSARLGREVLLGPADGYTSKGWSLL
UniProt Q99816: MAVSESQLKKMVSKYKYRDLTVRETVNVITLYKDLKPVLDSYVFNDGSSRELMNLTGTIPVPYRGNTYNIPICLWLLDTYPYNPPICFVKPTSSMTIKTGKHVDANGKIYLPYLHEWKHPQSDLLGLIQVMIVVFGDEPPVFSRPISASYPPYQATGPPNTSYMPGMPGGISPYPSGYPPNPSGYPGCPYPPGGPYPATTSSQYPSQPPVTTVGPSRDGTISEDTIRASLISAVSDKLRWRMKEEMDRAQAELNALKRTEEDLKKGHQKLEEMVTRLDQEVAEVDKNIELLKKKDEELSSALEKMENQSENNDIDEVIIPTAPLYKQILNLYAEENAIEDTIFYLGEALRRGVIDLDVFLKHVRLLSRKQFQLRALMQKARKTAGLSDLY

For assay [1], the target named is HCV NS5A expressed from J6/JFH HCV RNA (hepatitis C virus (J6/JFH genome)) (UniProt Q99IB8). The assay can be described thus: co-IP; membrane fractions of Huh-7.5 cells transfected with J6/JFH HCV RNA (naive cells and IgG as controls); IP with anti-HRS, anti-NS2 or anti-NS5A antibodies, immunoblot.
The target in assay [2] is HRS, endogenous in Huh-7.5 cells (human (endogenous in Huh-7.5)) (UniProt O14964). The description is as above.
Assay [3] addresses HCV NS2 expressed from J6/JFH HCV RNA (hepatitis C virus (J6/JFH genome)) (UniProt P26660). Described as above.
For assay [4], the target named is HCV NS5A (J6/JFH genome), GLuc2 fusion (hepatitis C virus (J6/JFH genome)) (UniProt Q99IB8). The experiment in a line: split reporter; protein-fragment complementation assay (PCA) with split Gaussia luciferase; GLuc1-prey (ESCRT) and GLuc2-bait (HCV) plasmids cotransfected pairwise into 293T cells in 96-well plates, lysed at 24 h; normalized luminescence ratio (NLR); positive at z score >2.2 (NLR >25).

Assay [5] addresses HCV p7 (J6/JFH genome), GLuc2 fusion (hepatitis C virus (J6/JFH genome)) (UniProt P26660). The description is as above.
Assay [6] deals with TSG101, Gaussia luciferase fragment fusion (UniProt Q99816). The description is as above.
Assay [7] deals with HCV NS4A (J6/JFH genome), GLuc2 fusion (hepatitis C virus (J6/JFH genome)) (UniProt Q99IB8). The description is as above.
Assay [8] concerns the target HCV NS2 (J6/JFH genome), GLuc2 fusion (hepatitis C virus (J6/JFH genome)) (UniProt P26660). Described as above.
Assay [9] concerns the target HCV NS5A (J6/JFH genome), GLuc2 fusion (hepatitis C virus (J6/JFH genome)) (UniProt Q99IB8). The assay is described as above. This is another data set of the same source.
Assay [10] has as its target HCV NS2 (J6/JFH genome), GLuc2 fusion (hepatitis C virus (J6/JFH genome)) (UniProt P26660). Described as above. The source holds these as a separate data set.

Where two headings read alike, the source gives them in different places. These are yes or no findings as the source states them, for the method shown. Binding seen in cells or lysates may run through a third protein. Some binding calls cover weakened binding; strength is not graded here. For part of these data: Where a sequence is shown, tags or fusion partners need not be part of it.

In the case of “HCV NS2 expressed from J6/JFH HCV RNA (from UniProt P26660 814-1030)”, the binding entry in assay [1] and in assay [2] was “binds” each time.

As to “HCV NS5A expressed from J6/JFH HCV RNA (from UniProt Q99IB8 1977-2442)”, the binding result in assay [2] and in assay [3] was “binds” each time.

As for “HRS (hepatocyte growth factor-regulated tyrosine kinase substrate), GLuc1 fusion (from UniProt O14964 1-777)”, the binding entry in [4], in [5], in assay [6], in [7] and in assay [8] was “binds” throughout.

As for “HRS UIM double mutant A266Q/A268Q (from UniProt O14964 1-777)”, the binding result in [6] is listed as “binds”.

Take “HRS UIM double mutant L269A/S270A (from UniProt O14964 1-777)”: in assay [6], the binding entry is recorded as “binds”.

Turning to “HRS, endogenous in Huh-7.5 cells (from UniProt O14964 1-777)”, the binding result in assay [1] and in assay [3] was “binds” throughout.

B1: VPS4A, GLuc1 fusion (protein, UniProt Q9UN37 1-437)
chain: MTTSTLQKAIDLVTKATEEDKAKNYEEALRLYQHAVEYFLHAIKYEAHSDKAKESIRAKCVQYLDRAEKLKDYLRSKEKHGKKPVKENQSEGKGSDSDSEGDNPEKKKLQEQLMGAVVMEKPNIRWNDVAGLEGAKEALKEAVILPIKFPHLFTGKRTPWRGILLFGPPGTGKSYLAKAVATEANNSTFFSVSSSDLMSKWLGESEKLVKNLFELARQHKPSIIFIDEVDSLCGSRNENESEAARRIKTEFLVQMQGVGNNNDGTLVLGATNIPWVLDSAIRRRFEKRIYIPLPEEAARAQMFRLHLGSTPHNLTDANIHELARKTEGYSGADISIIVRDSLMQPVRKVQSATHFKKVCGPSRTNPSMMIDDLLTPCSPGDPGAMEMTWMDVPGDKLLEPVVCMSDMLRSLATTRPTVNADDLLKVKKFSEDFGQES
On to B1, for which the binding result in assay [9] is “binds”.

B2: SLC9A6, GLuc1 fusion (protein, UniProt Q92581 1-701)
chain: MARRGWRRAPLRRGVGSSPRARRLMRPLWLLLAVGVFDWAGASDGGGGEARAMDEEIVSEKQAEESHRQDSANLLIFILLLTLTILTIWLFKHRRARFLHETGLAMIYGLLVGLVLRYGIHVPSDVNNVTLSCEVQSSPTTLLVNVSGKFYEYMLKGEISSHELNNVQDNEMLRKVTFDPEVFFNILLPPIIFYAGYSLKRRHFFRNLGSILAYAFLGTAISCFVIGSIMYGCVTLMKVTGQLAGDFYFTDCLLFGAIVSATDPVTVLAIFHELQVDVELYALLFGESVLNDAVAIVLSSSIVAYQPAGDNSHTFDVTAMFKSIGIFLGIFSGSFAMGAATGVVTALVTKFTKLREFQLLETGLFFLMSWSTFLLAEAWGFTGVVAVLFCGITQAHYTYNNLSTESQHRTKQLFELLNFLAENFIFSYMGLTLFTFQNHVFNPTFVVGAFVAIFLGRAANIYPLSLLLNLGRRSKIGSNFQHMMMFAGLRGAMAFALAIRDTATYARQMMFSTTLLIVFFTVWVFGGGTTAMLSCLHIRVGVDSDQEHLGVPENERRTTKAESAWLFRMWYNFDHNYLKPLLTHSGPPLTTTLPACCGPIARCLTSPQAYENQEQLKDDDSDLILNDGDISLTYGDSTVNTEPATSSAPRRFMGNSSEDALDRELAFGDHELVIRGTRLVLPMDDSEPPLNLLDNTRHGPA
For B2, in assay [10], the binding entry is “binds”.
